The text below walks through data of publication PMC7367369, “A small library of chalcones induce liver cancer cell death through Akt phosphorylation inhibition” (Scientific Reports, 2020).

The term IC50 denotes the concentration that gives 50% inhibition.

What all share (assay type): cell-based
One assay deals with SNU475. Put plainly: NCI-60 sulforhodamine B (SRB) cytotoxicity assay, SNU475. As to conditions: Homo sapiens, SNU-475, 72 h, 2.5–40 μM, triplicate. As for the experimental part: (§1) The bioactivities of the synthesized chalcones were assessed on human liver cancer cell lines and on DPSCs with NCI-SRB assay in vitro. DPSCs used to asses the bioactivity of chalcones on untransformed control cells with the potential of hepatic lineage. […] We also included 5-Fluorouracil which is used in clinics for gastrointestinal cancers and Sorafenib. All results were normalized to DMSO negative control measurements. The experiment was performed in triplicate.
(§2) Well differentiated human primary liver cancer cell lines Huh7, HepG2 and Hep3B, and poorly differentiated Mahlavu, FOCUS and SNU475 HCC cells were cultured in Dulbecco’s Modified Eagle’s Standard (DMEM) medium supplemented with 10% Fetal Bovine Serum (FBS), 100 units/mL penicillin and 100 µg/mL streptomycin (Gibco, Invitrogen, Carlsbad, CA, USA). 0.1 mM nonessential amino acids (NEAA) which are specific to HCC cell lines also added to culture media. Cells were cultured in a 5% CO2 incubator at 37^∘C
(§3) Primary liver cancer cells Huh7, HepG2, Hep3B, Mahlavu, FOCUS, Snu475 along with hepatic progenitor Dental pulp stem cells were seeded into 96-well plates (1,000–3,000 HCC cell/well and 10,000 cells DPSC/well ) for 24 h. The cells were then treated with increasing concentrations of the chalcones ( 2.5-40μM ). DMSO (AppliChem Biochemica, Darmstadt, Germany) was used as negative control. […]
In general terms: Sulforhodamine B stains cellular protein and so reports cell mass.

Another assay relates to Hep3B. Put plainly: NCI-60 sulforhodamine B (SRB) cytotoxicity assay, Hep3B. To be noted: Homo sapiens, 72 h, 2.5–40 μM, triplicate. The method, then: as §1, §2, §3
The test system of another assay is HepG2. Description: NCI-60 sulforhodamine B (SRB) cytotoxicity assay, HepG2. As to conditions: Homo sapiens, 72 h, 2.5–40 μM, triplicate. As for the experimental part: as §1, §2, §3
For assay [1], the system named is dental pulp stem cells (DPSC). Put plainly: NCI-60 sulforhodamine B (SRB) cytotoxicity assay, dental pulp stem cells. As to conditions: Homo sapiens, 72 h, 2.5–40 μM, triplicate, untransformed control cells.
Another assay deals with FOCUS. Put plainly: NCI-60 sulforhodamine B (SRB) cytotoxicity assay, FOCUS. As to conditions: Homo sapiens, 72 h, 2.5–40 μM, triplicate. The method, then:
as §1, §2, §3

The next assay relates to Mahlavu. Put plainly: NCI-60 sulforhodamine B (SRB) cytotoxicity assay, Mahlavu. To be noted: Homo sapiens, 72 h, 2.5–40 μM, triplicate. As for the experimental part: as §1, §2, §3
The next assay deals with Huh7. Description: NCI-60 sulforhodamine B (SRB) cytotoxicity assay, Huh7. To be noted: Homo sapiens, Huh-7, 72 h, read-out: IC50 Huh7. As for the experimental part: as §1, §2, §3

`Cc1ccc(/C=C/C(=O)c2ccccc2)cc1` [compound 2]: the IC50 in the assay with SNU475 is 9.8 µM; in the assay on Hep3B, 5.6 µM; with HepG2 it was 5.8 µM; in assay [1] it was 28.7 µM; with FOCUS, 11.4 µM; with Mahlavu, 5.1 µM. Also, in the assay with Huh7, the IC50 worked out at 4.1 µM.
